{"source": "the supplement of paper PMC5407854", "about": "“Inhibitor of ppGalNAc-T3-mediated O-glycosylation blocks cancer cell invasiveness and lowers FGF23 levels” (eLife, 2017)", "note": "Over roughly 1,700 compounds, “T2 sensor activation Q score (MG/GFP ratio z-score vs DMSO controls)” has its median near 0.3; the highest 2% begin near 1.9. The list shows a part of the results.", "data": [{"system": "ppGalNAc-T2 sensor", "experiment": "T2 sensor activation Q score (MG/GFP ratio z-score vs DMSO controls) (SD units); higher = more sensor activation (inhibition of ppGalNAc-T2 glycosylation)", "settings": "HEK293 sensor cells; 10 µM; 6 h", "experimental": "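Cells were treated with compound at 10 uM for 6 h, then MG/GFP ratio was read by flow cytometry (10,000 cells per well, duplicate wells). Q = (R - R_neg)/SD_neg relative to DMSO vehicle controls; the signal rises when the glycosyltransferase is inhibited.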", "values": [{"smiles": "CN1CCN(c2nc(N)c(Br)c(Cl)n2)CC1", "T2 sensor activation Q score": 0.8}, {"smiles": "O=[As](O)(O)c1ccc(N=Nc2ccc(O)cc2)cc1", "T2 sensor activation Q score": -1.75}, {"smiles": "O=C1CCCN1CC#CCN1CCCC1", "T2 sensor activation Q score": -0.3}, {"smiles": "CC(C)(C)n1cc(C(=O)c2ccccc2)cc1-c1ccccc1", "T2 sensor activation Q score": 0.8}, {"smiles": "Cc1ccc2c(c1)Oc1ccccc1N=C2", "T2 sensor activation Q score": 1.2}, {"smiles": "CCc1cc2c(cc1-c1csc(C/C(N)=N/O)n1)C(C)(C)CCC2(C)C", "T2 sensor activation Q score": 1.35}, {"smiles": "CC1(C)NC(=S)C(C)(C)N1N=O", "T2 sensor activation Q score": -1.5}, {"smiles": "COc1cc(OC)cc(C2(C#N)CCN(C)CC2)c1", "T2 sensor activation Q score": 1.9}, {"smiles": "O=C1NC(=O)C(=Cc2ccc3ccccc3c2)C(=O)N1", "T2 sensor activation Q score": 0.7}, {"smiles": "Cc1n[nH]c2c([N+](=O)[O-])c(=O)[nH]c(=O)n12", "T2 sensor activation Q score": 0.4}, {"smiles": "CC(CC(C#N)(c1ccccc1)c1ccccc1)N1CCCCC1", "note": "(stereo unspecified)", "T2 sensor activation Q score": 1.3}, {"smiles": "Cc1ccccc1NC(=O)NCCN1CC1", "T2 sensor activation Q score": 0.8}, {"smiles": "O=C(OC1CCCCC1)c1ccccc1C(=O)OC1CCCCC1", "T2 sensor activation Q score": -2.9}, {"smiles": "Cn1cnc([N+](=O)[O-])c1Sc1n[nH]c(N)n1", "T2 sensor activation Q score": 1.8}, {"smiles": "CCC(N)Cc1c[nH]c2ccccc12", "note": "(stereo unspecified)", "T2 sensor activation Q score": 1.2}, {"smiles": "CN1CCC(c2c[nH]c3ccccc23)C1", "note": "(stereo unspecified)", "T2 sensor activation Q score": 0.5}, {"smiles": "O=C1CCC2(O)[C@@H]3Cc4ccc(O)c5c4[C@]2(CCN3Cc2ccoc2)C1O5", "note": "(stereo partly specified)", "T2 sensor activation Q score": 0.3}, {"smiles": "CC1=CC(O)C(O)C2(C)C1CC1OC(=O)C(O)C3C(C)C(O)C4(O)OCC13C42", "note": "(stereo unspecified)", "T2 sensor activation Q score": 0.75}, {"smiles": "COc1ccccc1[As](=O)(O)CC(O)COc1ccc(Cl)cc1Cl", "note": "(stereo unspecified)", "T2 sensor activation Q score": 0.75}, {"smiles": "Cc1c(N)nc([C@H](CC(N)=O)NC[C@H](N)C(N)=O)nc1C(=O)N[C@H](C(=O)N[C@H](C)[C@@H](O)[C@H](C)C(=O)N[C@H](C(=O)NCCc1nc(-c2nc(C(=O)NCCC[S+](C)C)cs2)cs1)[C@@H](C)O)[C@@H](OC1OC(CO)C(O)C(O)C1OC1OC(CO)C(O)C(OC(N)=O)C1O)c1cnc[nH]1", "note": "(stereo partly specified)", "T2 sensor activation Q score": -0.45}, {"smiles": "ClC1=C(Cl)C(Cl)=C(Cl)C1=C/C=C/c1ccccc1", "T2 sensor activation Q score": -1.8}, {"smiles": "CC[C@@]1(O)C(=O)OCc2c1cc1n(c2=O)Cc2cc3c(NC(=O)CN)cccc3nc2-1", "T2 sensor activation Q score": 0.25}, {"smiles": "Cc1c2ccncc2c(C)c2c1[nH]c1ccccc12", "T2 sensor activation Q score": -5.2}, {"smiles": "O=P1(NCCCl)OCCCN1CCCl", "note": "(stereo unspecified)", "T2 sensor activation Q score": -2.6}, {"smiles": "Oc1cccc2nc3ccccc3nc12", "T2 sensor activation Q score": -0.15}, {"smiles": "N#CC(C#N)=Cc1ccc(C=C(C#N)C#N)cc1", "T2 sensor activation Q score": 0.9}, {"smiles": "O=C(NCCCN1CC1)Nc1cccc2ccccc12", "T2 sensor activation Q score": 1.35}, {"smiles": "COc1ccc2c(c1O)[C@]13CCN(C)[C@H](C2)[C@@H]1CCC(=O)C3", "T2 sensor activation Q score": -0.1}, {"smiles": "c1cc(C2N3CCCN2CC3)ccn1", "note": "(stereo unspecified)", "T2 sensor activation Q score": -0.3}, {"smiles": "C=CCNC(=S)Nc1ccc(OC(=O)Nc2ccc(Cl)c(Cl)c2)cc1", "T2 sensor activation Q score": -0.85}, {"smiles": "CC(C)CC(NC=O)C(=O)O.COc1cc2c(cc1OC)C13CCN4CC5=CCOC6CC(=O)N2C1C6C5CC43", "note": "(stereo unspecified)", "T2 sensor activation Q score": 1.3}, {"smiles": "COc1ccc2c(c1)C13CCN(C)C(C2)C1CCC1(C3)OCCO1", "note": "(stereo unspecified)", "T2 sensor activation Q score": 2}, {"smiles": "CN1C(=O)NC(=O)C(N=Nc2ccc(Cl)cc2)C1=O", "note": "(stereo unspecified)", "T2 sensor activation Q score": 1.05}, {"smiles": "CC(=O)Nc1cccc([As](=O)(c2cccc(NC(C)=O)c2)c2cccc(NC(C)=O)c2)c1", "T2 sensor activation Q score": 1.05}, {"smiles": "CC1Oc2cc3c(-c4c(O)cc(O)c5c(O)c6c(cc45)OC(C)C(C)C6=O)c(O)cc(O)c3c(O)c2C(=O)C1C", "note": "(stereo unspecified)", "T2 sensor activation Q score": 0.15}, {"smiles": "C=Cc1cc(OC)c2c(c1)c(=O)oc1c2cc(OC)c2c(O)ccc(C3OC(C)C(O)C(C)(O)C3O)c21", "note": "(stereo unspecified)", "T2 sensor activation Q score": -0.15}, {"smiles": "O=C1NC(=O)C(=Cc2csc3ccccc23)C(=O)N1", "T2 sensor activation Q score": -0.05}, {"smiles": "N[C@@H](Cc1ccc(N(CCCl)CCCl)cc1)C(=O)O", "T2 sensor activation Q score": -1.4}, {"smiles": "CCC1CCC(C)N(N=O)C1", "note": "(stereo unspecified)", "T2 sensor activation Q score": 0.1}, {"smiles": "CSc1nc(C)c(Br)c(N2CC2)n1", "T2 sensor activation Q score": -1.05}, {"smiles": "NC(=O)c1ccc(C(=O)Nc2ccc([As](=O)(O)O)cc2)cc1", "T2 sensor activation Q score": -0.4}, {"smiles": "CC12CCC3c4ccc(OC(=O)N(CCCl)CCCl)cc4CCC3C1CCC2O", "note": "(stereo unspecified)", "T2 sensor activation Q score": -0.35}, {"smiles": "CCN1CC2C3CCC(C)(O3)C2C1", "note": "(stereo unspecified)", "T2 sensor activation Q score": 1.85}, {"smiles": "C[C@H]1CC[C@H]2NCCN[C@H]2C1", "T2 sensor activation Q score": 0.55}, {"smiles": "CNC(=O)Oc1ccc(N(C)C)cc1C(C)C", "T2 sensor activation Q score": 0.25}, {"smiles": "c1ccc2c(c1)Sc1ccccc1N2CC1CN2CCC1CC2", "note": "(stereo unspecified)", "T2 sensor activation Q score": -2.5}, {"smiles": "O=[N+]([O-])c1cc(-c2ccc([As](=O)(O)O)cc2)ccc1[As](=O)(O)O", "T2 sensor activation Q score": 0.65}, {"smiles": "C/C=C(/C)C(=O)O[C@H]1CCN2CC=C(COC(=O)[C@@](O)([C@H](C)OC)C(C)(C)O)[C@H]12", "T2 sensor activation Q score": 0.2}, {"smiles": "CC12CCC3C(CC=C4CC(O)CCC43C)C1C/C(=C\\N1CCCC1)C2=O", "note": "(stereo unspecified)", "T2 sensor activation Q score": 0.15}, {"smiles": "COc1cccc2c1C(=O)c1c(O)c3c(c(O)c1C2=O)CC(O)(C(C)=NO)CC3OC1CC(N)C(O)C(C)O1", "note": "(stereo unspecified)", "T2 sensor activation Q score": -1.85}, {"smiles": "CC(Cc1ccccc1)NC(N)=O", "note": "(stereo unspecified)", "T2 sensor activation Q score": 1.8}, {"smiles": "Cc1ncc([N+](=O)[O-])n1CCOC(N)=O", "T2 sensor activation Q score": -0.85}, {"smiles": "CCC1CN1P1(=O)OCC(C)([N+](=O)[O-])CO1", "note": "(stereo unspecified)", "T2 sensor activation Q score": 0.85}, {"smiles": "COC[C@H]1OC(=O)c2coc3c2[C@@]1(C)C1=C(C3=O)[C@@H]2CCC(=O)[C@@]2(C)C[C@H]1OC(C)=O", "T2 sensor activation Q score": 2.1}, {"smiles": "COC(=O)c1nc(-c2ccc3c(n2)C(=O)C(N)=C(OC)C3=O)c(N)c(-c2ccc(OC)c(OC)c2O)c1C", "T2 sensor activation Q score": 0.4}, {"smiles": "OCC1CN1C1CCCCC1", "note": "(stereo unspecified)", "T2 sensor activation Q score": 2.1}, {"smiles": "Cc1ccc(-n2c(O)c(C=N)c(=O)n(-c3ccc(C)cc3)c2=O)cc1", "T2 sensor activation Q score": 1.05}, {"smiles": "O=C(O)CCCc1ccc(N(CCCl)CCCl)cc1", "T2 sensor activation Q score": 0.5}, {"smiles": "c1ccc2nc(OCCN3CC3)ccc2c1", "T2 sensor activation Q score": 1.15}, {"smiles": "Cc1ccccc1-n1c(C=Cc2ccccn2)nc2ccccc2c1=O", "T2 sensor activation Q score": -1}, {"smiles": "C=CCCC1(C2=CCCCC2)C(=O)NC(=O)NC1=O", "T2 sensor activation Q score": -1.5}, {"smiles": "COc1ccc(C2=CC(c3ccc(OC)c(OC)c3)c3c(c4ccccc4oc3=O)O2)cc1OC", "note": "(stereo unspecified)", "T2 sensor activation Q score": -0.05}, {"smiles": "CC(C)OC1CCCC(O)C1CC(=O)O", "note": "(stereo unspecified)", "T2 sensor activation Q score": -1.4}, {"smiles": "CNC(=O)Oc1c(C)[nH]ccc1=O", "T2 sensor activation Q score": 1.2}, {"smiles": "Cn1cnc([N+](=O)[O-])c1N=C(N)N", "T2 sensor activation Q score": 2.2}, {"smiles": "Cc1ccc(C=C2C(Cl)=C(Cl)C(Cl)=C2Cl)cc1", "T2 sensor activation Q score": -0.5}, {"smiles": "O=S(=O)(F)c1ccc2nc(-c3cccc(Sc4ccccc4)c3)cc(Cl)c2c1", "T2 sensor activation Q score": -0.1}, {"smiles": "COc1c(OP2(=S)OCC(C)(C)CO2)cnn(C2CCCCC2)c1=O", "T2 sensor activation Q score": -1.15}, {"smiles": "CC(=O)OC1CCC2(C)C(CCC3C2CC(=O)C2(C)C3CC(N3CC3)C2C(C)=O)C1", "note": "(stereo unspecified)", "T2 sensor activation Q score": 0.5}, {"smiles": "N.N.[Cl][Pt][Cl]", "T2 sensor activation Q score": -1.1}, {"smiles": "O=P(Oc1ccccc1)(Oc1ccccc1)c1ccccc1", "T2 sensor activation Q score": -3.1}]}]}
